# Test results reported in patent US8633179B2, “Synergistic interaction of NOTCH-1 inhibitors with glucocorticoids” (priority 2007, dated 2014).
# At least one structure is not confirmed: it was looked up by name or label, or the drawing left a doubt.
# Columns and labels:
# CUTLL1 cells = experiment: Cell viability (MTT/colorimetric proliferation) assay; assay type: cell-based, human
# Procedure: FIG. 1. GSIs reverse glucocorticoid resistance in T-ALL cells. (a-c). […] Statistical significance was assessed with Student's t-test.
# FIG. 7. Analysis of the effects of GSI treatment in chemotherapy response. Cell viability analysis in the CUTLL1 cells treated with 100 nM CompE or vehicle only in presence of increasing concentrations of etoposide, methotrexate, L-asparaginase and vincristine. Cell viability was analyzed by an MTT assay and cytotoxicity data was represented as percentage of viable cells compared with non-treated controls. Data are means±s.d. of triplicate experiments.
# Proliferation and cell size assays.
# PARP cleavage = experiment: Western blot analysis of PARP cleavage in CUTLL1 cells; assay type: cell-based, human
# Procedure: FIG. 1. […] (a-c). […] (e) Percentage of apoptotic cells (annexinV positive/PI negative) in CUTLL1 (72 hours), KOPTK1 (48 hours) and TALL1 cells (72 hours) treated with DMSO (control), CompE (100 nM), dexamethasone (1 μM) and dexamethasone (1 μM) plus CompE (100 nM). […] Data in (a-f) are means±standard deviation (s.d.) of triplicate experiments. Statistical significance was assessed with Student's t-test.
# Western blot analysis. Antibodies against glucocorticoid receptor (E-20, Santa Cruz Biotechnology), BIM (Cell Signaling Technologies); BMF (BD Bioscience) and α-actin (C-11, Santa Cruz Biotechnology) were used in immunoblot assays following manufacturer instructions.
# [1] = system: glucocorticoid regulated genes; experiment: Gene expression profiling with oligonucleotide microarrays in CUTLL1 cells; assay type: cell-based, human; conditions: CUTLL1, 24 hours, dexamethasone 1 μM, CompE 100 nM
# BIM = experiment: Quantitative RT-PCR and Western blot of BIM in CUTLL1 cells; assay type: cell-based, human; conditions: CUTLL1, quantitative RT-PCR
# CUTLL1 T-ALL xenografts = experiment: Subcutaneous xenograft model with in vivo bioimaging; set-up: species or system NOD/SCID mice; conditions: 4 days of daily i.p. treatment; dexamethasone 15 mg/kg, DBZ 10 μmol/kg
# Klf4 = Klf4 expression in small intestine of treated mice; assay type: in vivo
# [2] = system: CUTLL1 cells expressing luciferase; conditions: three weeks after the initiation of the treatment; treated 2 weeks
SMILES,"effect on the synergistic effects of CompE plus dexamethasone (CUTLL1 cells; CUTLL1, RU486 1 μM)","loss of cell viability (CUTLL1 cells; CUTLL1, dexamethasone alone, concentrations as high as 10^−5 M)",PARP cleavage (Western blot) (PARP cleavage),expression of glucocorticoid target genes (microarray) [1],BIM transcript expression (BIM),tumor growth / tumor burden by bioimaging (CUTLL1 T-ALL xenografts),Klf4 expression by RT-PCR (Klf4; 5 and 10 days),KLF4 expression by immunohistochemistry (Klf4; 5 days),disease status [2]
CC#C[C@]1(O)CC[C@H]2[C@@H]3CCC4=CC(=O)CCC4=C3[C@@H](c3ccc(N(C)C)cc3)C[C@@]21C [RU486],reversed,,,,,,,,
C[C@@H]1C[C@H]2[C@@H]3CCC4=CC(=O)C=C[C@]4(C)[C@@]3(F)[C@@H](O)C[C@]2(C)[C@@]1(O)C(=O)CO [dexamethasone],,only a minimal loss of cell viability,no significant increase in PARP cleavage,only moderate changes in the expression of glucocorticoid target genes,slightly upregulated,progressive tumor growth similar to that observed in vehicle-treated controls,decreased,reduced KLF4 expression,Disease progression was readily apparent
